# Percent effect of library compounds

The chains behind the UniProt entries cited, without tags or fusion partners.
UniProt P9WPC5, whole entry: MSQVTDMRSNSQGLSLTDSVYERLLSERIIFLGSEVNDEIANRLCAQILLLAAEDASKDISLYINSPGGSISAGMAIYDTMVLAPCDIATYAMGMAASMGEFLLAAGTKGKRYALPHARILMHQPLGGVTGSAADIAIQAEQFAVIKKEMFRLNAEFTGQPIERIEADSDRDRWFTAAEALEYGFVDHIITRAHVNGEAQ
UniProt P9WPC3, whole entry partner: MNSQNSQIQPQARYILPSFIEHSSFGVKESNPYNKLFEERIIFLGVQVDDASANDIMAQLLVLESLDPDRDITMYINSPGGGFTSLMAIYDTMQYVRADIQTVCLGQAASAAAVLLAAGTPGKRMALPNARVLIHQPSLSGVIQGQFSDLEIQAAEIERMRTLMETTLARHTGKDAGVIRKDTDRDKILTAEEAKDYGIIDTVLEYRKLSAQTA
UniProt I6X8D2, whole entry: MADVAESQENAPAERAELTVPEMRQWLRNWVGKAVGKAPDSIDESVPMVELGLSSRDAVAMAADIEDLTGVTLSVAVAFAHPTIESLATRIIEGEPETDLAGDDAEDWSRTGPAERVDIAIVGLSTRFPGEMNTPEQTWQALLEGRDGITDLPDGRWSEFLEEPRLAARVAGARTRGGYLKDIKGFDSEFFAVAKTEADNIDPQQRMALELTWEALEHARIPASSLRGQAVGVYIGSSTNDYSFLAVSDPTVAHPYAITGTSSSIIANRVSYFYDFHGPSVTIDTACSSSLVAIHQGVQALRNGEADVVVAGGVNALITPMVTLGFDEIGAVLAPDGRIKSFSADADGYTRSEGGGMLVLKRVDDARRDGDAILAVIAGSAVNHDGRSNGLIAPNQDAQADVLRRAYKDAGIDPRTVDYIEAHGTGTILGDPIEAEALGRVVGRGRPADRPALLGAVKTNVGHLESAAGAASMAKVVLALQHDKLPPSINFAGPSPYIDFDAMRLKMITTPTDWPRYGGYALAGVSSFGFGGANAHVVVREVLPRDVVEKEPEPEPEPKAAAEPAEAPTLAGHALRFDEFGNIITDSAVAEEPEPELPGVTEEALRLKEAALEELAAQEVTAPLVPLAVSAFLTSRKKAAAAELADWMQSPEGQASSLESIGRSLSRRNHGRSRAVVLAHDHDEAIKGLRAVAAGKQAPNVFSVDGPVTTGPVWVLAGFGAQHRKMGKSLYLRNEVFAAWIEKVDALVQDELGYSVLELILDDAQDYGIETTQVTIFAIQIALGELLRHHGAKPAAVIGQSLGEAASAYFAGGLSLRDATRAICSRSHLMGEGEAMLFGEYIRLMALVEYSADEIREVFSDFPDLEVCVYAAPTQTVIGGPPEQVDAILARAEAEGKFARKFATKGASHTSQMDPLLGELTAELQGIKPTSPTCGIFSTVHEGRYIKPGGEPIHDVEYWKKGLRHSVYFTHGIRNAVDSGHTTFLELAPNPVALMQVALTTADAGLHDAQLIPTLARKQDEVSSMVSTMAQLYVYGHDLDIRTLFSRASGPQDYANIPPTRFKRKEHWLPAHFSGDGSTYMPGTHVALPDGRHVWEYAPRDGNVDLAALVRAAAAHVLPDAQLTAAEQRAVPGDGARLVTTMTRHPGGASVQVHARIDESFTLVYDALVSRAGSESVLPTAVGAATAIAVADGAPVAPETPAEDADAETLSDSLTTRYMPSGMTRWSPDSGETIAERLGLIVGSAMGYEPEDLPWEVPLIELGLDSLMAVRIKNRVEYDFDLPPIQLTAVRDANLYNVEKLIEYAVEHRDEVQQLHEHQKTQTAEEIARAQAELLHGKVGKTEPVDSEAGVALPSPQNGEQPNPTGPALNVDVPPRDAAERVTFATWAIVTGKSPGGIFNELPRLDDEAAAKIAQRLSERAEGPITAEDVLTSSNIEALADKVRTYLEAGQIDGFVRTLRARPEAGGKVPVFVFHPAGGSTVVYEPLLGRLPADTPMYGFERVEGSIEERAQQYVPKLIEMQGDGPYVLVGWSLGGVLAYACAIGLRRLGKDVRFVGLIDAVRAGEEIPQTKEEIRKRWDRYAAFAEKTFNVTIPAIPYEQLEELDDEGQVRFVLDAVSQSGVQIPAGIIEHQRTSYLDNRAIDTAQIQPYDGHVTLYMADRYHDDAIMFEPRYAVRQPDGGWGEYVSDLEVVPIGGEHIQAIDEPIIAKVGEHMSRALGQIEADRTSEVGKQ

Leishmania in macrophages: 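Cell assay of Leishmania donovani living inside macrophages; the read-out is not stated. Concentration: 30 µM. The record gives no direction; compounds that gave an IC50 in retests scored well above the rest, so higher reads as stronger inhibition. Of about 69,000 compounds tested this way, about 1,000 (1.5%) reached 50% or more in at least one test.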
Toxoplasma: 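Assay of Toxoplasma gondii numbers, read through their beta-galactosidase reporter with a colour substrate. Concentration: 10 µM. Higher reads as fewer parasites (inferred from which compounds were picked for retests). Of about 67,000 compounds tested this way, about 260 (0.38%) reached 50% or more in at least one test.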
ClpP1P2: 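ClpP1P2, Mycobacterium tuberculosis (UniProt P9WPC5 and UniProt P9WPC3). Protease assay of ClpP1P2, read by the AMC dye that it sets free. Compounds at 50 µM. Direction is inferred from only a few compounds that gave an IC50; most scored high, so higher reads as stronger inhibition. Most other retested compounds had strongly negative values. Of about 69,000 compounds tested this way, about 10 (0.015%) reached 50% or more in at least one test.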
T. brucei: 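Whole-parasite assay of Trypanosoma brucei over 72 hours; the read-out is not stated. Compounds at 30 µM. Direction is inferred from retests: higher values go with stronger inhibition. Values scatter widely below zero; nearly all retest evidence comes from the higher of the two concentrations used. About 64,000 compounds were tested under these conditions; 1.5% (about 940) showed 50% or more at least once.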
Pks13 thioesterase: 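Polyketide synthase Pks13, Mycobacterium tuberculosis (UniProt I6X8D2). Enzyme assay of the thioesterase domain of polyketide synthase 13; the read-out is not stated. Concentration: 30 µM. The record gives no direction; the compounds picked for IC50 retests had high values, so higher reads as stronger inhibition. About 67,000 compounds were tested under these conditions; 0.46% (about 300) showed 50% or more at least once.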

Each number is a percent effect as filed. The controls that fix the scale are not given in the record; negative values are as filed. Compounds were drawn at random from those tested, without regard to their results.

compound: Cc1nc(C)n(CC2CCCN2Cc2ncc(-c3ccccc3)o2)n1 (centres unmarked)
Leishmania in macrophages: 31.14
Toxoplasma: -3.164
ClpP1P2: -51.36
T. brucei: 21.4
Pks13 thioesterase: -1.08

compound: OC1CCN(C2CCN(Cc3cccc(Cn4cccn4)c3)CC2)CC1
Leishmania in macrophages: -31.77
Toxoplasma: -17.03
ClpP1P2: 2.659
T. brucei: -26.58
Pks13 thioesterase: -5.925

compound: CSc1cccc(CNC(=O)[C@H]2CNC[C@@H](C(=O)N3CCOCC3)C2)c1
Leishmania in macrophages: -28.55
Toxoplasma: -38.25
ClpP1P2: -9.953
T. brucei: 26.04
Pks13 thioesterase: -20.14

compound: CCc1nc(-c2ccnc(N3CCNCC3)n2)no1
ClpP1P2: -19.67
Pks13 thioesterase: -10.17

compound: CCOCCn1nc(C)cc1C(=O)N1CCCC[C@H](N(C)C)C1
Leishmania in macrophages: 0.2882
Toxoplasma: 1.703
ClpP1P2: -17.58
T. brucei: -24.23
Pks13 thioesterase: -10.19

compound: CCc1nnc(CNc2ccc(CC(=O)N3CCSCC3)cc2)o1
Leishmania in macrophages: -14.05
Toxoplasma: 9.566
ClpP1P2: 0.1656
T. brucei: -11.56
Pks13 thioesterase: 5.6

compound: Cc1ccc(CNC(=O)CN2CCN(CC(O)c3ccco3)CC2)cc1 (centres unmarked)
ClpP1P2: 0.4208

compound: O=C1CCCCN1CC(=O)N1CCCC(c2ccccc2)C1 (centres unmarked)
Leishmania in macrophages: -4.752
Toxoplasma: 3.461
ClpP1P2: 15.09
T. brucei: -41.15
Pks13 thioesterase: -13.4

compound: CCCNC(=O)c1cc(C(C)C)nc(N2CCCC2)n1
Leishmania in macrophages: 33.36
Toxoplasma: 10.84
ClpP1P2: -44.32
T. brucei: -11.68
Pks13 thioesterase: -21.55

compound: O=C(c1ccco1)N1CCO[C@@H]2CN(c3ccccc3)CC[C@@H]2C1
ClpP1P2: -4.981
Pks13 thioesterase: -28.35

compound: O=C1CC[C@H](C(=O)N(CCc2ccccc2)C2CCOC2)N1 (some centres unmarked)
Leishmania in macrophages: 6.545
Toxoplasma: 2.336
ClpP1P2: 14.24
T. brucei: -64.87
Pks13 thioesterase: -13.17

compound: CCn1c(C)nnc1SCCn1cc(-c2nccs2)nn1
Leishmania in macrophages: 15.22
Toxoplasma: 16.39
ClpP1P2: -15.52
T. brucei: 37.41
Pks13 thioesterase: -16.42

compound: CN1CCC(Cc2cc(Nc3ccccn3)ncn2)CC1
Leishmania in macrophages: 25.41
Toxoplasma: 10.94
ClpP1P2: 6.367
T. brucei: -27.32
Pks13 thioesterase: -25.69

compound: CN1CCOCC12CCN(c1ccc(C#N)cc1)CC2.O=C(O)C(F)(F)F
Leishmania in macrophages: 14.66
Toxoplasma: 5.124
T. brucei: -36.86

compound: Cc1ncsc1CN1CC[C@H]2OCC[C@@]2(C(=O)NC(C)C)C1
ClpP1P2: -16.09
Pks13 thioesterase: 3.4

compound: CC(C)Nc1oc(-c2ccc(S(=O)(=O)N(C)C)o2)nc1C#N
Leishmania in macrophages: 16.53
Toxoplasma: -12.9
ClpP1P2: -2422
T. brucei: -8.182

compound: NC(=O)COc1cccc(CN2CCc3cncnc3C2)c1
Leishmania in macrophages: 25.1
Toxoplasma: -9.477
ClpP1P2: -13.07
T. brucei: -12.12
Pks13 thioesterase: 4.581

compound: CC(CNC(=O)c1cc(Cn2cnc3ccccc32)[nH]n1)N1CCCC1 (centres unmarked)
Leishmania in macrophages: 5.922
Toxoplasma: 3.947
ClpP1P2: -1.853
T. brucei: -37
Pks13 thioesterase: 10.33

compound: COCc1nn(C)c2c1CN(Cc1cnn(C)c1)CC2
ClpP1P2: -12.88
Pks13 thioesterase: -12.47

compound: CCOC(=O)Cn1cccc(S(=O)(=O)N2CCCC2)c1=O
Leishmania in macrophages: 1.8
Toxoplasma: -0.8672
ClpP1P2: -2.806
T. brucei: -27.47
Pks13 thioesterase: -8.358

compound: CC(C)c1nn(CC(=O)N2CCCCC2)c(=O)c2c1cnn2C(C)(C)C
Leishmania in macrophages: 11.53
Toxoplasma: -0.6568
ClpP1P2: -0.4123
T. brucei: -63.84
Pks13 thioesterase: -5.404

compound: CCS(=O)(=O)N1Cc2ccnn2CC(c2nc(C)no2)C1 (centres unmarked)
Leishmania in macrophages: 32.27
Toxoplasma: 12.29
ClpP1P2: -3.161
T. brucei: -8.059
Pks13 thioesterase: -28

compound: Cl.O=c1c2sccc2nc2n1CCN(Cc1cc(F)ccc1F)CC2
Leishmania in macrophages: 7.521
Toxoplasma: -19.46
T. brucei: 13.9

Repeated from the top, 2 entries:

compound	Leishmania in macrophages	Toxoplasma	ClpP1P2	T. brucei	Pks13 thioesterase
Cc1nc(C)n(CC2CCCN2Cc2ncc(-c3ccccc3)o2)n1 (centres unmarked)	31.14	-3.164	-51.36	21.4	-1.08
OC1CCN(C2CCN(Cc3cccc(Cn4cccn4)c3)CC2)CC1	-31.77	-17.03	2.659	-26.58	-5.925

Measurements from “University of Dundee, Small-Polar-MMV Screening Library” (2021), ChEMBL document CHEMBL3988442.